Source: PubChem BioAssay AID1159578 (Peter MacCallum Cancer Centre, 2015)
Shown is an unselected part of about 18,000 reagents. About 1,030 of them (5.7%) were called active. 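Inactive calls also include pools with fewer than 3300 nuclei, whose migration was not assessed.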 Raw values are not corrected between plates. A number with no mark means an inactive call. Not all columns of the deposit are shown.

- Test: 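Genome-wide hunt for genes controlling movement of lymphatic endothelial cells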 (primary screen)
- System: human lymphatic endothelial cells
- Knock-down reagent: siRNA pool against human genes, 40 nM
- Time to read-out: 48 h after transfection
- Measured: 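Cells stained with dye and imaged after a scratch; covered wound area and nuclei counted, duplicates averaged, migration set against mock wells and turned into a robust z-score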
- Direction: migration robust z-score: higher = faster migration into the scratch; nuclei per well: higher = more cells in the well
- Call rule: 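Migration changed when robust z exceeds 2 or falls below -2 and mean nuclei number is at least 3300; otherwise not called changed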
- Meaning of the calls: active = migration changed; inactive = no migration change, or too few cells

gene | migration robust z-score | nuclei per well, duplicate mean
ZNF430 (zinc finger protein 430) | 0.04 | 6214
RPL7 (ribosomal protein L7) | -0.14 | 3807
NDST3 (N-deacetylase and N-sulfotransferase 3) | -1.35 | 4798
COCH (cochlin) | 0.49 | 6256
OLFML2A (olfactomedin like 2A) | -1.19 | 5240
MTCL1 (microtubule crosslinking factor 1) | 0.71 | 5847
DVL1 (dishevelled segment polarity protein 1) | 0.94 | 6886
BASP1 (brain abundant membrane attached signal protein 1) | -1.91 | 3634
PPM1L (protein phosphatase, Mg2+/Mn2+ dependent 1L) | -0.5 | 6074
SLC35D3 | -0.36 | 5742
KRT6A (keratin 6A) | -0.48 | 4270
ART4 (ADP-ribosyltransferase 4 (inactive) (Dombrock blood group)) | 0.34 | 6044
GFPT2 (glutamine--fructose-6-phosphate transaminase 2) | 0.57 | 5933
PSMB2 (proteasome 20S subunit beta 2) | 0.1 | 5329
NAA80 (N-alpha-acetyltransferase 80, NatH catalytic subunit) | -0.31 | 6043
TSEN2 (tRNA splicing endonuclease subunit 2) | 0.91 | 4092
RPL18P4 (ribosomal protein L18 pseudogene 4) | 1.04 | 6471
ZNF674 (zinc finger protein 674) | -1.41 | 5838
ANKIB1 (ankyrin repeat and IBR domain containing 1) | 0.57 | 5691
TXNDC15 (thioredoxin domain containing 15) | 0.16 | 5000
FAM117A (family with sequence similarity 117 member A) | 0.82 | 4862
CABLES2 (Cdk5 and Abl enzyme substrate 2) | 0.35 | 6609
P2RY14 (purinergic receptor P2Y14) | -0.72 | 7020
PCP2 (Purkinje cell protein 2) | 0.23 | 5908
PRCC (proline rich mitotic checkpoint control factor) | 0.25 | 5872

Next part; the last 3 above are carried over.
gene | migration robust z-score | nuclei per well, duplicate mean
P2RY14 (purinergic receptor P2Y14) | -0.72 | 7020
PCP2 (Purkinje cell protein 2) | 0.23 | 5908
PRCC (proline rich mitotic checkpoint control factor) | 0.25 | 5872
SAG (S-antigen visual arrestin) | -1.19 | 5095
RPL41 (ribosomal protein L41) | -0.32 | 5181
DPP10 (dipeptidyl peptidase like 10) | 1.92 | 6449
ARHGAP11A (Rho GTPase activating protein 11A) | 0.04 | 5810
RTL3 (retrotransposon Gag like 3) | -0.43 | 4346
C3orf22 (chromosome 3 open reading frame 22) | -0.79 | 4944
ALPK3 (alpha kinase 3) | 0.02 | 4054
PABPC1L2B (poly(A) binding protein cytoplasmic 1 like 2B) | 2.69 (active) | 5472
LYN (LYN proto-oncogene, Src family tyrosine kinase) | -1.66 | 3790
WASHC2C (WASH complex subunit 2C) | 0.46 | 5572
ACOT11 (acyl-CoA thioesterase 11) | 0.06 | 5820
DAP (death associated protein) | -0.04 | 4681
TLNRD1 (talin rod domain containing 1) | 3.02 (active) | 7232
CAPRIN2 (caprin family member 2) | 1.52 | 5812
LILRB2 (leukocyte immunoglobulin like receptor B2) | -2.59 (active) | 4790
AUH (AU RNA binding methylglutaconyl-CoA hydratase) | -0.26 | 5868
H2AC21 (H2A clustered histone 21) | -0.04 | 6374
COG6 (component of oligomeric golgi complex 6) | 0.8 | 5695
MYT1L (myelin transcription factor 1 like) | -1.5 | 3990
TMEM14C (transmembrane protein 14C) | 2.25 (active) | 6060
FER (FER tyrosine kinase) | -1.66 | 5552
MCM2 (minichromosome maintenance complex component 2) | 2.02 (active) | 6462
MRPL43 (mitochondrial ribosomal protein L43) | 1.45 | 6241
TMEM33 (transmembrane protein 33) | 1.41 | 4602
DIS3L (DIS3 like exosome 3'-5' exoribonuclease) | 1.42 | 6590
ARRDC3 (arrestin domain containing 3) | -0.08 | 6643
RASGRP4 (RAS guanyl releasing protein 4) | -0.06 | 5617
PIGS (phosphatidylinositol glycan anchor biosynthesis class S) | 0.29 | 7604
PALS2 (protein associated with LIN7 2, MAGUK p55 family member) | -1.06 | 5697
DLX3 (distal-less homeobox 3) | -1.4 | 4155
GTF2A2 (general transcription factor IIA subunit 2) | 0.34 | 5784
BYSL (bystin like) | -0.9 | 5062
